Laboratory results from patent US20060134737A1.
Results are given in words; binding and its absence hold for the method and conditions named. Binding seen in cells or lysates may run through a third protein. Binding calls can cover weak binding; strength is not graded here. Sequences can lack the tags named with a protein.

Experiments:
[1] = target: TNF receptor 2 (TNF-R2) wild type, pcDNAI-hTNF-R2 (human); experiment: co-immunoprecipitation of TNF-R2 with utr-1 from HEK293T lysates (FIG. 6)
[2] = target: TNF receptor 2 (TNF-R2) wild type, pcDNAI-hTNF-R2 (human); experiment: co-immunoprecipitation of TNF-R2 with utr-1 from HEK293T lysates with 0, 0.25, 1 or 2 µg E-TRAF2 plasmid; anti-cMyc and anti-E Western blots

- binding [1]: binds
- binding [2]: binds
B1: E-tagged murine TRAF2 (pEF6-E-mTRAF2) (protein, UniProt P39429 2-501, looked up, not shown: small tags and cut ends)
chain: AAASVTSPGSLELLQPGFSKTLLGTRLEAKYLCSACKNILRRPFQAQCGHRYCSFCLTSILSSGPQNCAACVYEGLYEEGISILESSSAFPDNAARREVESLPAVCPNDGCTWKGTLKEYESCHEGLCPFLLTECPACKGLVRLSEKEHHTEQECPKRSLSCQHCRAPCSHVDLEVHYEVCPKFPLTCDGCGKKKIPRETFQDHVRACSKCRVLCRFHTVGCSEMVETENLQDHELQRLREHLALLLSSFLEAQASPGTLNQVGPELLQRCQILEQKIATFENIVCVLNREVERVAVTAEACSRQHRLDQDKIEALSNKVQQLERSIGLKDLAMADLEQKVSELEVSTYDGVFIWKISDFTRKRQEAVAGRTPAIFSPAFYTSRYGYKMCLRVYLNGDGTGRGTHLSLFFVVMKGPNDALLQWPFNQKVTLMLLDHNNREHVIDAFRPDVTSSSFQRPVSDMNIASGCPLFCPVSKMEAKNSYVRDDAIFIKAIVDLTGL
